# PMC4047054
# Assays:
# Assay in all cases: split reporter; BiFC with split EYFP (1-174 and 175-end) in onion epidermal cells, gene gun; confocal microscopy 24 hours after bombardment; DAPI staining
# [1] = biological target: T1, FLZ domain of FLZ1 (89-140 amino acids), BiFC fusion (A. thaliana) (UniProt Q9FGQ9)
# T1 sequence: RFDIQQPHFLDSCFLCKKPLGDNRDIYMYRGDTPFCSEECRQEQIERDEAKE
# [2] = biological target: T2, AT5G49120, FLZ domain containing protein, BiFC fusion (A. thaliana) (UniProt Q9FH22)
# T2 sequence: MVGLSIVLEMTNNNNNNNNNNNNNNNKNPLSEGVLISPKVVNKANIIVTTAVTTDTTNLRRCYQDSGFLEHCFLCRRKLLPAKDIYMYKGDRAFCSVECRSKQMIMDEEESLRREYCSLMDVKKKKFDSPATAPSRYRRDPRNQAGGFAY
# [3] = biological target: T3, FLZ1, full coding sequence, BiFC fusion (A. thaliana) (UniProt Q9FGQ9)
# T3 sequence: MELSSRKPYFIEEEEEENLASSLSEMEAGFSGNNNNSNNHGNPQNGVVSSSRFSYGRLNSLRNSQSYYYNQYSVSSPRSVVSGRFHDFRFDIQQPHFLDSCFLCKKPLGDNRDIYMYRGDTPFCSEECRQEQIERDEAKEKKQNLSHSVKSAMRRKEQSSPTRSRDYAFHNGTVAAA
substance,measurement,setting,value
"PFA-DSP3, BiFC fusion (A. thaliana)",binding,[1],binds
same,binding,[2],no binding
same,binding,[3],binds

# Results are given in words; binding and its absence hold for the method and conditions named. In cells and extracts the contact can be indirect. For part of these data: Binding can be weak; no strength is given. Sequences can lack the tags named with a protein.
